Experimental data: PubChem BioAssay AID1347423 (Functional Genomics Laboratory (NCATS/FGL), 2020)
In all, about 52,000 sequences went through this assay and about 210 (0.4%) were called active.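 How the source made its calls: active means gene whose silencing raises cell survival under the drug, median off-target-corrected z-score across its silencing RNAs 2 or more; inactive means the rest.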 Some of the results follow.

Assay: Resistance to Poly (ADP-Ribose) Polymerase inhibitor: Gene Identification via Genome-wide siRNA Screen
Conditions: mouse BRCA2 R2336H ES cells, olaparib, CellTiter-Glo viability; active compounds read high
How it was run: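 Mouse BRCA2 R2336H ES cells were reverse-transfected with siRNA (20 nM final), treated at 48 h with 500 nM olaparib, and read by CellTiter-Glo after 72 h. Scores: MAD-based z per siRNA, median per gene, seed off-target correction.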

Row | Sequence | z-score
1 | CGCGAAAUAUGUGUGUUUATT against Nr4a2 | inactive: 1.21
2 | GCCCUAUCUACGAUGAAAATT against Scamp2 | inactive: -1.04
3 | GGAAAAGCACAGAUUUCUATT against 4932432K03Rik | inactive: -0.489
4 | CUCCCAAAUGGAAUUGCAUTT against Rc3h1 | inactive: -2.85
5 | GGAGGGAGAACUCAUCGAATT against Nudt14 | inactive: -0.904
6 | CGACAUCGACAGUCUAUAATT against Abp1 | inactive: -0.292
7 | GGAUAGCGUGAAAUGAUUATT against Nqo3a2 | inactive: 0.75
8 | GGUCAUGAUGGAAUGAGAATT against 9130404D14Rik | inactive: 0.458
9 | UCUUACAAACUAGCUCUCCTT against Crabp2 | inactive: 0.411
10 | GGACAGAGAUCAAUAUUAATT against BC053073 | inactive: 0.416
11 | CCACCAAAAUUUCAUGAUATT against Eps15-rs | inactive: 0.0444
12 | GCACGAAGAGUUAAUGGAGTT against Aym1 | inactive: 1.84
13 | GGGUGGUCAGGAAAAUCAUTT against Notch1 | inactive: 2.31
14 | GGAGAAAAAGUCUGAAAGATT against Hel308-pending | inactive: -1.04
15 | GGAGAGAUUUUUCUAUCAUTT against D030060O14Rik | inactive: 0.307
16 | GCUGACGAAACCAUUGAAUTT against Ugt1a10 | inactive: -0.574
17 | GGAUGUCUGUCCUCUUAAATT against MGC30332 | inactive: -1.67
18 | CCAUAGAUAUUUACGGAAATT against Slc9a4 | inactive: 0.519
19 | CCAGCUAAUCCCAACAUGCTT against Pum1 | inactive: 0.681
20 | GCAUCAGGAUUCUGAUAACTT against Mrgpra6 | inactive: -0.862
21 | GCCUUCUGCUCCGAAGAAGTT against Rpl13 | inactive: -3.02
22 | CCUUGUGUAAGAGGUUUUUTT against Helz | inactive: 0.0206

A few values from the entries so far.
z-score with GGACAGAGAUCAAUAUUAATT against BC053073 reads inactive: 0.416
z-score with CCACCAAAAUUUCAUGAUATT against Eps15-rs reads inactive: 0.0444
z-score with GCCCUAUCUACGAUGAAAATT against Scamp2 reads inactive: -1.04

Further entries.

Row | Sequence | z-score
23 | GGAUUAAGUGGUCAAAUGATT against Ugt2b36 | inactive: 0.814
24 | GGACCAAGCUGUUAUUAACTT against Dhodh | inactive: -0.104
25 | GCGAUUGCAAGAGGACCUATT against Hr6bn | inactive: 0.726
26 | GCAAGCAGACUUGUCCUUCTT against Hnrpc | inactive: -0.33
27 | CCAUGGCUUACGAGAGACATT against D430028G21Rik | inactive: 1.07
28 | CGAGCUAUCCACUUAAUCATT against Irak3 | inactive: 0.638
29 | GGCUGGUAUCUUUCAGAGUTT against Cox6c | inactive: 0.109
30 | CCAAGUCGUAAUCUAGAAGTT against Scn7a | inactive: 2.2
31 | CGAUUAGUCUCUCAUUAUUTT against Ipo11 | inactive: 0.42
32 | GGAAAAAGCCCUUGAACAUTT against Tnnt1 | inactive: -0.581
33 | GGCUAUGAGGACUCCUAUGTT against A430081P20Rik | inactive: -1.13
34 | GCAAGUGGUUGAUUGAGAATT against 2510027N19Rik | inactive: -1.23
35 | GCCUUUUGAGUAUAACGAATT against Zfp248 | inactive: -0.172
36 | GCAAUCGAGCUGAAACUAGTT against Hat1 | inactive: -0.864
37 | GGAACAGUAUAUAAGUUCATT against 1700129L13Rik | inactive: -1.12
38 | GCUGAUCCUUAACUUAAAGTT against Adam1b | inactive: -0.899
39 | CGAACCAUUUCGUAAAGUUTT against 6330415M09Rik | inactive: -0.187
40 | CCCAGAACACCGUAUACUUTT against Itga3 | inactive: -1.2
41 | GGAAGCCAAAGAAAAGUUCTT against Ski | inactive: 0.403
42 | GGAGAGCACAAAGAACAUUTT against Med6 | inactive: 0.125
43 | GGAUUUCAUCAGUGUUCUUTT against 2810430M08Rik | inactive: -0.982
44 | GGACUAUGGGUGCACCAAUTT against Wbscr5 | inactive: -0.656

Row | Sequence | z-score
45 | GCUGUUUGACUACAUAAUCTT against Melk | inactive: 0.0434
46 | GGAUUUAUGUGGACAACGCTT against Dnahc8 | inactive: 1.35
47 | GGGCAUCUUCUGCUACUUCTT against Slc24a6 | inactive: 0.46
48 | CCGAAGGACAGUGUUUAUUTT against 2600014M03Rik | inactive: 0.742
49 | GGAGAUAUGUUCAUUGUUCTT against Rasa1 | inactive: -0.188
50 | GGCUAUGAAGAAAACAUGUTT against Gpx7 | inactive: 0.412
51 | GGUAUAUAGGGCUGUGGCUTT against Pigs | inactive: 1.45
52 | CCAGACUAUUUAACUUGAGTT against Adrb2 | inactive: 1.18
53 | GGAUUGCCGAAACUGUACATT against Ucp1 | inactive: -1.48
54 | CCUAUAGCAGUGGUUUUCATT against 1810009K13Rik | inactive: -0.451
55 | CCAGUCCGAUGUUUGUUAUTT against Cnbp2 | inactive: -0.496
56 | CGUAGGCACCUAUGGUAUATT against H2-Aa | inactive: -0.84
57 | GGCCAAGGAAAUAUCAAUGTT against 5430428G01Rik | inactive: -0.285
58 | GGCCCAUAUCUGCUCUCAUTT against A430110N23 | inactive: 0.339
59 | GCAUGCAUCGAUUGUGCGCTT against Scml4 | inactive: -0.575
60 | GCUACCUCAACAUGGAUGCTT against Pcca | inactive: 1.24
61 | GGCAGCUUUACGAUGUACATT against Lcn2 | inactive: -0.897
62 | GCUUCCUGUGUCUAUUUAUTT against 5230400J09Rik | inactive: 0.263
63 | GCGGCAAGUGGACUUUUCATT against Dlc1 | inactive: -0.441
64 | GGAAGACUCCUCAUACCUGTT against Ddit4 | inactive: 0.334
65 | GGAAGAGGAAGAAAAAAAGTT against 1700042N06Rik | inactive: -1.32
66 | GAUUUUCUGUAUCCAUCUATT against Olfr725 | inactive: -0.178
